Assay results reported in US20140079713A1.
Results are given in words; binding and its absence hold for the method and conditions named. For some assays here: Binding seen in cells or lysates may run through a third protein. Some results given as binding are weak or reduced against the parent protein; the word gives no strength. For some assays here: Sequences can lack the tags named with a protein. Blank lines part the entries; values can stand above or below the molecule they belong to.

By UniProt entry, the sequences of proteins in these tests, tags left out. Where a name states a change or a piece, a line headed by the entry shows the natural chain unless it says otherwise. Chains listed by the source or under a name are the forms on record and can include a tag or linker. Residues count along the entry.
ShhN-AP WT (Q62226, residues 25-198): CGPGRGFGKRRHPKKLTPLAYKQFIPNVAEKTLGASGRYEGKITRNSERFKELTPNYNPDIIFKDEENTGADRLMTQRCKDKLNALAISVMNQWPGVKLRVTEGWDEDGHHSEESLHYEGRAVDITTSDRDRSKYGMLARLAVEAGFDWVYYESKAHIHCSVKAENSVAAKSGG
ShhN-AP E90A (Q62226, form named): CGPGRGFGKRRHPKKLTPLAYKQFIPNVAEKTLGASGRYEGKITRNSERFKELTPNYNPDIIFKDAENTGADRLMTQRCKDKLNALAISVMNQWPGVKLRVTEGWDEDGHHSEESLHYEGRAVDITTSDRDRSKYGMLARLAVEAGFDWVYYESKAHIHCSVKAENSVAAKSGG

What was measured:
PTCH1-GFP (mouse) = target: T1, PTCH1-GFP (mouse) (UniProt Q61115); assay: ShhN-AP binding to cells expressing the receptor
T1 sequence (looked up): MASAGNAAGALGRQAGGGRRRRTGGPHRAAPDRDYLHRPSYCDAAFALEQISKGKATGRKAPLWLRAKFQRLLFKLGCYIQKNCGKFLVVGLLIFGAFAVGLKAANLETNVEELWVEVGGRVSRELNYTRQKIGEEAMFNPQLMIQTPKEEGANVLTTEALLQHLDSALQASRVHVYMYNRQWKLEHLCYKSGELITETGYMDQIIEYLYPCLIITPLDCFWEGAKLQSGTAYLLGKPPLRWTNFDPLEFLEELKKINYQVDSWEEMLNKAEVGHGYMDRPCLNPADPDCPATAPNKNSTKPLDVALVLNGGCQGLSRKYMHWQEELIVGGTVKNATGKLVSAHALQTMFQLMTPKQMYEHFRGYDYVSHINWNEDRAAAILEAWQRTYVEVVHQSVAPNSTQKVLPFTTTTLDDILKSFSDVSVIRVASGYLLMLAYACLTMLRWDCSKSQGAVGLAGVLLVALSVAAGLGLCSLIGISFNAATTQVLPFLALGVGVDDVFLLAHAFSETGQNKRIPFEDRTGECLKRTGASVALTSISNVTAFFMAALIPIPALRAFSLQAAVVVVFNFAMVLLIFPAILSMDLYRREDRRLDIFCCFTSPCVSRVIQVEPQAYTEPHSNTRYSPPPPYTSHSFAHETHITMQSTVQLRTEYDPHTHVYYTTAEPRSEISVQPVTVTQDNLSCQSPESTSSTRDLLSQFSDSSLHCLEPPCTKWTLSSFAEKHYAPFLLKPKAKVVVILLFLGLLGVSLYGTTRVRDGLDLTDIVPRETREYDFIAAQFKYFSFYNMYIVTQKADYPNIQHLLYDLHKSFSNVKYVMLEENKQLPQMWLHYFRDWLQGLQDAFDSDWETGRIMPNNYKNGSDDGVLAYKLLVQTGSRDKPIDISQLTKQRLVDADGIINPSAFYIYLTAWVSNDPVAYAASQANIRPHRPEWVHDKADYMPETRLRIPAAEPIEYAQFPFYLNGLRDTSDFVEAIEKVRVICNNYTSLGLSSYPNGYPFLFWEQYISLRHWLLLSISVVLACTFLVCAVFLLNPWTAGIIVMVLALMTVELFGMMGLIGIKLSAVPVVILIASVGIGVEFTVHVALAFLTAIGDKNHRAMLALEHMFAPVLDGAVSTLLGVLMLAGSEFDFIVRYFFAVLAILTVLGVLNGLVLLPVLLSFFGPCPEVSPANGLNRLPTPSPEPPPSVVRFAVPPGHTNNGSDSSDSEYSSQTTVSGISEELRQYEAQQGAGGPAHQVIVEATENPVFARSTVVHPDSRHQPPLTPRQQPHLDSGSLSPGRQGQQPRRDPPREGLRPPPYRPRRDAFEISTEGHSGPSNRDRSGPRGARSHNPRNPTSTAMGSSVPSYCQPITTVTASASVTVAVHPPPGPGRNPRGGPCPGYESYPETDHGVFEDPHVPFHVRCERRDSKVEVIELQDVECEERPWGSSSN

BOC-GFP (mouse) = target: T2, BOC-GFP (mouse) (UniProt Q6AZB0); assay: summary table of the Shh-receptor binding assays with AP-tagged ShhN
T2 sequence (looked up): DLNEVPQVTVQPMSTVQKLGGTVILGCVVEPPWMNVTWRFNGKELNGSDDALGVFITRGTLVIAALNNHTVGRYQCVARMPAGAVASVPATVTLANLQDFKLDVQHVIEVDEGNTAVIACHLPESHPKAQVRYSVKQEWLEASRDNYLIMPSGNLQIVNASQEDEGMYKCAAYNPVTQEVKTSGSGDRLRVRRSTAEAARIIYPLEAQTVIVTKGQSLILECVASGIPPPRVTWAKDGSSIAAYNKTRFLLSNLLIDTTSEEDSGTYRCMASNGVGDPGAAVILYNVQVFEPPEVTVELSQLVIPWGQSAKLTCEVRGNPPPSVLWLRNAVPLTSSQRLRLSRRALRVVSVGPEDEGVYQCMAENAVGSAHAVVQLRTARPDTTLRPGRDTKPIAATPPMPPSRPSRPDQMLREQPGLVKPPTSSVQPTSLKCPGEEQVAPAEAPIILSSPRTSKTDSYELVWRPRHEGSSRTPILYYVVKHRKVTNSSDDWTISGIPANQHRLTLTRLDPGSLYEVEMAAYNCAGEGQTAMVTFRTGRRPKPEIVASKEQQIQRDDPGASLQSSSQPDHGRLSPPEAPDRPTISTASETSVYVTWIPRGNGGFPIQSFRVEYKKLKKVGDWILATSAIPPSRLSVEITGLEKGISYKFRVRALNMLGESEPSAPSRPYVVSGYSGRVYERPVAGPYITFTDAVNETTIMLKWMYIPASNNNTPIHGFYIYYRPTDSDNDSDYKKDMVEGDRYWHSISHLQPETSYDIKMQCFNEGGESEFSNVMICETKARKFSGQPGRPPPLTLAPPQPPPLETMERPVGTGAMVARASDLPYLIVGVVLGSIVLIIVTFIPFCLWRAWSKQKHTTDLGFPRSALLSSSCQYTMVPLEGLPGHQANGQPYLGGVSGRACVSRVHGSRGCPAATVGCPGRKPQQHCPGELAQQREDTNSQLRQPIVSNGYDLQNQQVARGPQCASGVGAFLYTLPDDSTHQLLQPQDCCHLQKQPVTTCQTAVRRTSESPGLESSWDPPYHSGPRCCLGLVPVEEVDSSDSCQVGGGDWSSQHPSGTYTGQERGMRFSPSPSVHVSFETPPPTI

[1] = target: T3, CDON (pEGFP-mCdon) (mouse) (UniProt Q32MD9); assay: as above
T3 sequence (looked up): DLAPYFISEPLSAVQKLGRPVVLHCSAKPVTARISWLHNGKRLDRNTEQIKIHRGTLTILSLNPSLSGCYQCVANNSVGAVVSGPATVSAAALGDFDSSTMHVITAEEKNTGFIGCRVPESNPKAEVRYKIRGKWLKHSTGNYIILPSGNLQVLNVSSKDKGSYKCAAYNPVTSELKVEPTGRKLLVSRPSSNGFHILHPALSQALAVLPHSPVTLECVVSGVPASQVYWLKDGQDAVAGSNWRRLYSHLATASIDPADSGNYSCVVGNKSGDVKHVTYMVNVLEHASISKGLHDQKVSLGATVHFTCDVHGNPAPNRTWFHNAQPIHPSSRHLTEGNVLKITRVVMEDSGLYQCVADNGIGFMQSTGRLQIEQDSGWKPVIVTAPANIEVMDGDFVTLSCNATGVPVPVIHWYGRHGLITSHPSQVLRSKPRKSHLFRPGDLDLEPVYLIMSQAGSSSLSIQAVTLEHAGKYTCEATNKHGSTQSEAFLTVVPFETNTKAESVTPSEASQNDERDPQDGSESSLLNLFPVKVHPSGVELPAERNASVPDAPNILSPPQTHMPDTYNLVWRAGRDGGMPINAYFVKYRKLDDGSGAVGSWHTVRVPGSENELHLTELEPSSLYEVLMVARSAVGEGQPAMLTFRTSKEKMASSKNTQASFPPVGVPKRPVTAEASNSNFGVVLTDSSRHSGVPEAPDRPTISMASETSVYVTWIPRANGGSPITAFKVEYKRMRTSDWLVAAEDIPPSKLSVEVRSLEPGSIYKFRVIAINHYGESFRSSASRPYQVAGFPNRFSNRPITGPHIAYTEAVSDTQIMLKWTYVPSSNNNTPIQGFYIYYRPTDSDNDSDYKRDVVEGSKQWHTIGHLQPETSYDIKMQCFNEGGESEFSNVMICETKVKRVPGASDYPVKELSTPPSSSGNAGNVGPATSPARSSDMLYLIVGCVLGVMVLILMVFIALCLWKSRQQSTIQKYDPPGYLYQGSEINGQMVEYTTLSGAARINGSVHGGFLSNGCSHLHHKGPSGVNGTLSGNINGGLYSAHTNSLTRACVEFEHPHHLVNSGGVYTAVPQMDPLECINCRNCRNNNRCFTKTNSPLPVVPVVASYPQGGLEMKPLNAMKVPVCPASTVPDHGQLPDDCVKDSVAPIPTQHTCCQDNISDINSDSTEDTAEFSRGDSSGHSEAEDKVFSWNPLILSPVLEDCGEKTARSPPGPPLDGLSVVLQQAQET

GAS1 (mouse) = target: T4, GAS1 (mouse) (UniProt Q01721); assay: as above
T4 sequence (looked up): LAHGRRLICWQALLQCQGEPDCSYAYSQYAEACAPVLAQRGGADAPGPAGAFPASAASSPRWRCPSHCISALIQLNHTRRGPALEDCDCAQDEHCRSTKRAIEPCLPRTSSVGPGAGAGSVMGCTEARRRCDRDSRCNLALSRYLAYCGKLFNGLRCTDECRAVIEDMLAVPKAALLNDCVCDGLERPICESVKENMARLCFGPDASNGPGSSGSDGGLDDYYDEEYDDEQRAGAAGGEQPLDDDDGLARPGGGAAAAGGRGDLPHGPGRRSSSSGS

[2] = target: T5, PTCH1-GFP (mouse), Q61115; assay: co-immunoprecipitation (anti-GFP IP), COS7 lysates; conditions: remark: other sources report otherwise
T5 chain: T1 sequence (looked up)

[3] = target: T5, PTCH1-GFP (mouse), Q61115; assay: co-immunoprecipitation (anti-GFP IP), COS7 lysates, FIG. 5A; conditions: remark: other sources report otherwise
[4] = target: T5, PTCH1-GFP (mouse), Q61115; assay: co-immunoprecipitation (anti-GFP IP), COS7 lysates, FIG. 10; conditions: remark: other sources report otherwise
[5] = target: T5, PTCH1-GFP (mouse), Q61115; assay: co-immunoprecipitation (anti-GAS1 IP, anti-GFP blot), COS7 lysates; conditions: remark: other sources report otherwise

binding (PTCH1-GFP (mouse)): binds
Molecule: ShhN-AP E90A (from UniProt Q62226 25-198) (ligand)

binding (BOC-GFP (mouse)): binds
binding [1]: binds
binding (GAS1 (mouse)): binds
Molecule: ShhN-AP WT (from UniProt Q62226 25-198) (ligand)

binding [2]: binds
binding [3]: binds
binding [4]: binds
binding [5]: binds
B1: GAS1, Q01721 39-315 (receptor, mouse, UniProt Q01721 39-315, looked up)
chain: T4 sequence (looked up)
